Experimental data: PubChem BioAssay AID493014 (National Center for Advancing Translational Sciences (NCATS), 2011)
Hit rate of the full screen: of about 340,000 compounds, about 170 (0.05%) were called active. Inconclusive results, whose numbers are uncertain, are shown with a selection of clear calls. The call rests on the fitted dose curve; in most records, active means well fitted inhibition curve with a large enough effect in the signal ratio, with a control signal flat (not every such curve was filed as active); inconclusive means small, poorly fitted or top-dose-only effect, or effect the other way, or a change in a side signal; inactive means flat fitted curve, though single readings scatter; the % refers to the signal ratio. Potencies beside an inconclusive call are fits to weak or partial responses and may not hold up.

Assay: qHTS Assay to Find Inhibitors of Chronic Active B-Cell Receptor Signaling;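 on activity change, negative = inhibition: plate controls were basal doxycycline-induced cells for no effect and cells given 10 µM MG132 for full effect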
Conditions: ABC-DLBCL IkBa-CBG/CBR reporter, luminescence ratio (green luciferase fused to IkBa over red control in TMD8 lymphoma cells), 4 h; activity change, negative = inhibition: at 46.1 µM (top of the series)
Method in brief: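 TMD8 ABC-DLBCL cells carrying doxycycline-inducible green luciferase fused to IkappaBalpha plus unfused red luciferase were exposed to compounds (up to 46 uM) for 4 hrs at 37C. Activity came from the overlap-corrected green/red luminescence ratio.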
Potency means the concentration at half of the fitted maximal effect.

| Compound | activity change, negative = inhibition | Potency |
| --- | --- | --- |
| O=C(NCc1cccs1)c1cc2ccccc2o1 | inconclusive: -18.3% |  |
| COc1ccccc1CNc1ccc(Br)cn1 | inactive |  |
| Cc1cccc(NC(=O)/C(C#N)=C/c2cn(CC(=O)NCc3ccco3)c3ccccc23)c1 | inactive |  |
| CCS(=O)(=O)N1CC(=O)N(c2cccc(Cl)c2)C(C)(C(=O)NC2CCCCCC2)C1 (stereo unspecified) | inactive |  |
| CC(O)CNc1nc2c(c(=O)n(C)c(=O)n2C)n1Cc1cccc(Br)c1 (stereo unspecified) | inconclusive: -2.09% |  |
| CCCN(CCC)CCNC(=O)C1CCN(Cc2nc(-c3ccc(Cl)cc3)oc2C)CC1 | inconclusive: -1.77% |  |
| CCOc1ccc(N=NC2C(=O)N(C(N)=S)N=C2C)cc1 (stereo unspecified) | inconclusive: 13.4% |  |
| CC(C(=O)OCC(=O)c1ccc(Br)cc1)N1C(=O)C2C3CCC(C3)C2C1=O (stereo unspecified) | inactive |  |
| O=C(CN1C(=O)NC2(CCCC2)C1=O)OCCOc1ccccc1 | inactive |  |
| CCNS(=O)(=O)c1ccc(NC(=O)c2ccccc2OCC)cc1 | inconclusive: 5.56% |  |
| CC(=O)Nc1cccc(C(=O)N/N=C/c2cccc(C)n2)c1 | inconclusive: -14.5% |  |
| COc1ccccc1NS(=O)(=O)c1cccc(C(=O)NCC(c2ccco2)N2CCCC2)c1 (stereo unspecified) | inconclusive: -2.04% |  |
| COc1ccc(-c2nc(SCc3ccccc3)n(C(=O)c3ccco3)n2)cc1 | inconclusive: 9.68% |  |
| COc1cc(/C=N/Nc2nc(-c3ccc(S(=O)(=O)N(C)C)cc3)cs2)ccc1O |  | inconclusive: 14.1 µM [falling, single point] |
| Cc1ccc(C)c(NS(=O)(=O)c2cc(C(=O)N3CCc4ccccc4C3)ccc2Cl)c1 | inconclusive: 11.8% |  |
| NC(=O)CCC(NC(=S)Nc1ccccc1)C(=O)O (stereo unspecified) | inconclusive: 11.7% |  |
| Nc1cc(S(=O)(=O)Nc2ccc(Br)cc2)ccc1Cl |  | inconclusive: 15.8 µM [rising, partial curve, poor fit] |
| CCOC(=O)c1ccc(CN(Cc2ccc(C)cc2)S(=O)(=O)c2ccc(F)c(C(=O)Nc3ccc(C)c(F)c3)c2)cc1 | inactive |  |
| NNC(=O)c1sccc1OCc1ccc(F)cc1 | inactive |  |
| CCC(=O)c1ccc(OCC(=O)Nc2nc(C)cs2)cc1 | inconclusive: 1.88% |  |
| COc1ccc(C(=S)N2CCOCC2)cc1OS(=O)(=O)c1ccccc1[N+](=O)[O-] | inconclusive: 4.24% |  |

| Compound | activity change, negative = inhibition | Potency |
| --- | --- | --- |
| O=C(NC1CCCCC1)N1CCN(c2ccccc2)CC1 |  | inconclusive: 2.59 µM [falling, partial curve, poor fit] |
| O=C1NC(c2ccccc2)=C(c2nc3ccccc3s2)C(c2ccc(F)cc2)N1 (stereo unspecified) | inconclusive: 22.5% |  |
| O=C(Nc1nc(-c2ccccc2)cs1)C1CCCCN1S(=O)(=O)c1ccc(Cl)cc1 (stereo unspecified) | inactive |  |
| CCSc1nc2nn(-c3ccccc3)c(=O)c-2c2n1CCCCC2 | inconclusive: 3.53% |  |
| CC(=O)c1sc(NC(=O)C2CCN(C(=O)c3ccc(F)cc3)CC2)nc1-c1ccccc1 |  | inconclusive: 4.61 µM [rising, full curve] |
| CCn1c2ccccc2c2cc(NC(=O)CSc3nnc(-c4ccccc4)o3)ccc21 | inconclusive: -2.11% |  |
| COCCNc1ccc([N+](=O)[O-])cc1C(=O)NC1CCCc2ccccc21 (stereo unspecified) | inactive |  |
| O=C(CCSc1nnc(-c2ccncc2)o1)Nc1ccccc1 | inconclusive: -1.87% |  |
| CC(OC(=O)c1ccc2c(c1)OCCO2)C(=O)NC1CCCCC1C (stereo unspecified) | inactive |  |
| CCn1c(=O)c(C(=O)NCc2ccccn2)c(O)c2ccccc21 | inconclusive: -6.47% |  |
| CCOC(=O)N1CCC(NC(=O)c2cc(C(=O)NC3CCN(Cc4ccccc4)CC3)ccc2CO)CC1 | inactive |  |
| CC(NC(=O)CCNS(=O)(=O)c1ccccc1)c1ccccc1 (stereo unspecified) | inconclusive: 4.65% |  |
| COc1ccccc1/C=C/C(=O)OC(C)CN1CCOCC1 (stereo unspecified) | inconclusive: 0.0721% |  |
| CCCCOc1ccc2c(C)cc(=O)oc2c1OCCCC |  | inconclusive: 16.4 µM [falling, single point] |
| Cc1[nH]c2ccccc2c1C(=O)CSc1n[nH]c(N)n1 |  | inconclusive: 35.5 µM [falling, single point] |
| COc1ccc(C(=O)NC(=S)NCc2cccnc2)cc1OC | inactive |  |
| O=[N+]([O-])c1cc(S(=O)(=O)Nc2ccccc2)ccc1-n1nnc2ccccc21 | inactive |  |
| Cc1cn(-c2cc(C(=O)Nc3ccc(C)c(NC(=O)C(=O)c4c[nH]c5ccccc45)c3)cc(C(F)(F)F)c2)cn1 |  | inconclusive: 2.51 µM [falling, partial curve, poor fit] |
| Cc1sc2nc(SCc3ccc(C(=O)O)cc3)n(Cc3ccco3)c(=O)c2c1C | inconclusive: 2.9% |  |
| CC1=NN(C(N)=S)C(=O)C1N=Nc1ccc([N+](=O)[O-])cc1 (stereo unspecified) |  | inconclusive: 2.51 µM [cytotoxic, partial curve] |
| c1ccc([C@H]2CN3C(=N2)Sc2ccccc23)cc1 |  | inconclusive: 18.4 µM [falling, single point] |

| Compound | activity change, negative = inhibition | Potency |
| --- | --- | --- |
| CCc1ccc(/C=N/NC(=O)c2c[nH]c3ccccc23)s1 |  | inconclusive: 20.6 µM [falling, partial curve] |
| O=c1[nH]c2cccnc2n1Cc1ccccc1 |  | inconclusive: 5.17 µM [falling, single point] |
| CCOc1ccc(NC(=S)c2ccncc2)cc1 | inconclusive: -0.344% |  |
| O=C(/C=C/c1ccco1)N1CCc2ccccc21 |  | inconclusive: 22.4 µM [falling, single point] |
| O=C(CSc1ncnc2sc3c(c12)CCCC3)N1CCC(c2noc3ccc(F)cc23)CC1 | inconclusive: 6.01% |  |
| CCC(=O)N1N=C(c2ccc(Cl)cc2)CC1c1ccco1 (stereo unspecified) | inactive |  |
| CC1(C)Cc2c(sc3c2c(=N)n(Cc2ccco2)c(=O)n3CC(=O)Nc2cccc(Cl)c2)CO1 | inconclusive: 10.6% |  |
| COc1ccc(CC(=O)Nc2nnc(C(C)C)s2)cc1OC | inconclusive: 15.6% |  |
| CCOc1cc(-c2c(C)c(CC)nc(N)c2C#N)ccc1O | inconclusive: -0.656% |  |
| COc1ccc(C(=O)NCC(c2cccs2)N2CCc3ccccc32)c(OC)c1 (stereo unspecified) | inactive |  |
| Cc1cc(N/N=C/c2ccc(O)cc2)c2cccc(C)c2n1 | inconclusive: -17.4% |  |
| N#C/C(=C\c1ccc(O)c(O)c1)C(=O)NCCCc1ccccc1 |  | inconclusive: 8.91 µM [falling, partial curve, poor fit] |
| NNC(=O)c1cccn(Cc2cccc(C(F)(F)F)c2)c1=O |  | inconclusive: 1.41 µM [falling, partial curve, poor fit] |
| Cc1ccc(SCc2[nH]nc3c2C2(CCSCC2)C(C#N)=C(N)O3)cc1 | inconclusive: 2.03% |  |
| Cc1ccc(NC(=O)c2cc3ccccc3o2)cc1Cl |  | inconclusive: 25.1 µM [falling, partial curve] |
| Cc1cc(=O)n(CCCO)c(O)c1C#N | inactive |  |
| NC(=O)c1ccc(-c2nnn(CC(=O)N(C3CCCCC3)C3CCS(=O)(=O)C3)n2)cc1 (stereo unspecified) |  | inconclusive: 16.4 µM [falling, single point] |
| Cc1cc(/C=C2\C(=O)NN(c3ccccc3)C2=O)c(C)n1-c1ccccc1O |  | inconclusive: 20 µM [falling, partial curve] |
| COc1ccc(S(=O)(=O)N2CCC(C(=O)OCC(=O)c3ccccc3)CC2)cc1[N+](=O)[O-] | inconclusive: 0.0232% |  |
| CCN(C(=O)COC(=O)/C=C/c1ccc(F)cc1)C1CCCCC1 | inconclusive: -1.36% |  |
| Cc1ccc(NC(=O)c2ccccc2)cc1 |  | inconclusive: 22.4 µM [falling, partial curve] |

| Compound | activity change, negative = inhibition | Potency |
| --- | --- | --- |
| O=C(NN=Cc1ccccc1OC(F)F)c1cccc(S(=O)(=O)N2CCCC2)c1 |  | inconclusive: 23.1 µM [falling, single point] |
| Cn1cc(C(=O)c2ccc(Cl)cc2)cc1-c1nc2ccccc2n1C | inconclusive: -9.68% |  |
| Cc1ccccc1OCC(=O)N/N=C/c1sc(=O)n(Cc2cccc(C(=O)O)c2)c1Cl | inconclusive: 7.66% |  |
| COc1ccc(N(C(=O)c2ccncc2)S(=O)(=O)c2ccc(F)cc2)cc1 | inactive |  |
| Cc1ccc(-c2csc3ncnc(Oc4cccc5ccc(C)nc45)c23)cc1 | inactive |  |
| CCn1c(CNC(=O)c2ccccc2Cl)cc2ccccc21 | inconclusive: -1.69% |  |
| CC(C)(C)CN1C(N)=NC[C@H]1Cc1ccc(O)cc1 | inconclusive: 3.82% |  |
| CCOC(=O)C1=C(COC(=O)CCNS(=O)(=O)c2ccc(C)c(C)c2)NC(=O)NC1C (stereo unspecified) | inconclusive: -0.955% |  |
| Cn1ncc(Br)c1C(=O)N1CCc2ccccc21 | inactive |  |
| CN(C)c1ccc(C(=S)N2CCN(c3ccc([N+](=O)[O-])cc3)CC2)cc1 | inactive |  |
| O=C(CSC1=NCCS1)NC(NC(=O)CSC1=NCCS1)c1ccccc1 | inactive |  |
| C(=N\Nc1nc2ccccc2s1)/c1ccccn1 |  | inconclusive: 3.55 µM [cytotoxic, partial curve, poor fit] |
| C/C(=N/NC(=O)c1cccs1)c1cccs1 |  | inconclusive: 35.5 µM [falling, single point] |
| N=c1c2ccccc2nnn1-c1cccc(C(F)(F)F)c1 | inconclusive: 2.54% |  |
| CCOc1ccc(N(CC(=O)NCCSc2ccccn2)S(=O)(=O)c2ccc(Cl)cc2)cc1 | inactive |  |
| CCCOC(=O)C1=C(C)NC2=C(C(=O)C(C(=O)OC)C(C)C2)C1c1ccc(N(CC)CC)cc1 (stereo unspecified) | inconclusive: 6.69% |  |
| CCOC(=O)c1c(-c2ccccc2)c2cc(OC)ccc2n1CCCN(C)C |  | inconclusive: 5.62 µM [falling, single point] |
| O=C1CN(C(=O)COC(=O)c2cccc(OCc3ccccc3)c2)c2ccccc2N1 |  | inconclusive: 16.4 µM [falling, partial curve, poor fit] |

Part of the list above, tab-delimited.
Compound	activity change, negative = inhibition	Potency
Cc1ccc(-c2csc3ncnc(Oc4cccc5ccc(C)nc45)c23)cc1	inactive	
CCn1c(CNC(=O)c2ccccc2Cl)cc2ccccc21	inconclusive: -1.69%	
CC(C)(C)CN1C(N)=NC[C@H]1Cc1ccc(O)cc1	inconclusive: 3.82%	

Three records picked at random from the list so far:

| Compound | activity change, negative = inhibition | Potency |
| --- | --- | --- |
| Cn1cc(C(=O)c2ccc(Cl)cc2)cc1-c1nc2ccccc2n1C | inconclusive: -9.68% |  |
| C(=N\Nc1nc2ccccc2s1)/c1ccccn1 |  | inconclusive: 3.55 µM [cytotoxic, partial curve, poor fit] |
| Cc1ccc(-c2csc3ncnc(Oc4cccc5ccc(C)nc45)c23)cc1 | inactive |  |
